In this test the target is Two-chain tPA (human) (UniProt P00750). Nature of the test: SDS-PAGE, non-reducing, Coomassie stain, of the PAI-1 + tPA reaction.

Chains of the proteins cited; added tags and fusions are not shown. Lines headed by an entry give the natural chain unless they say otherwise; changes in a name come on top. Residues count along the entry.
UniProt P00750, residues 36-562: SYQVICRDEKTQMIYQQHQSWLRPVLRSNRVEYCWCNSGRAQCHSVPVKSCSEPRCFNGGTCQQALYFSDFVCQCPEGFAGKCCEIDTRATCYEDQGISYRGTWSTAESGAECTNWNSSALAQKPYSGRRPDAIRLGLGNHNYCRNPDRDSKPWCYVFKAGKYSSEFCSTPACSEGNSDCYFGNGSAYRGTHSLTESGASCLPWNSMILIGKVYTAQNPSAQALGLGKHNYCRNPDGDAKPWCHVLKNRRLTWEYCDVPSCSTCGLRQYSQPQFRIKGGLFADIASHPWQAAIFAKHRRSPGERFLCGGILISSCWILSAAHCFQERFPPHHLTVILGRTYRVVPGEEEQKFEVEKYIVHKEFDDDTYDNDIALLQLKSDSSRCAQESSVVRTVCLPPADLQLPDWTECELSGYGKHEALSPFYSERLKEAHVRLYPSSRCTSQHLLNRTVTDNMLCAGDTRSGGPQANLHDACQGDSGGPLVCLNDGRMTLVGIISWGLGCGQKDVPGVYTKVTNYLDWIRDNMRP
UniProt P05121: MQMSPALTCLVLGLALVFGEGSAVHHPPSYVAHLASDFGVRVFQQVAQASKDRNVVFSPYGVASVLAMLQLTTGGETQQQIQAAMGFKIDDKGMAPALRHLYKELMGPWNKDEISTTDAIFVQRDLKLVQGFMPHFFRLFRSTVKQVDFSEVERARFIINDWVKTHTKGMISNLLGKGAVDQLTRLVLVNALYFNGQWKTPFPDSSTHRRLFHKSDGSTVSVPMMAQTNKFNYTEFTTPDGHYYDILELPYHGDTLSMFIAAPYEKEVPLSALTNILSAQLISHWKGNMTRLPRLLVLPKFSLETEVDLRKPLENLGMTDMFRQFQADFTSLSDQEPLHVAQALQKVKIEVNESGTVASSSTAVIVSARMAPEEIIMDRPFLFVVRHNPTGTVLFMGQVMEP

The results in this text go back to US20160200831A1.

These are yes or no findings as the source states them, for the method shown. Some entries that bind do so weakly or less than the wild type.

Consider “human PAI-1 (from UniProt P05121 24-402)”, for which the binding result is “binds”.
